The list is a part of this screen's results and no random one: it is rich in T/C values a quarter to a half above the control, in often repeated tests (any T/C) and in doses without a T/C. Further doses and runs are listed elsewhere. T/C gives the treated animals as a percentage of the vehicle group. Some entries give survivors of the animals treated and no T/C: the source files T/C as zero there, which appears to mark a toxic dose or a test without result, not a measured value. Some doses without a T/C left all or most animals alive at the check, yet need not have been tolerated: the source hardly ever lists a survival T/C far under the control, and the zero likely stands for such cases as well. Survivors were counted at the toxicity check, usually on the fifth day, unless a day is given; later deaths do not show. Schedules are NCI's codes, taken here to give the interval after Q, in days (D) or hours (H), and the number of doses after X. Some entries were tested several times; the values are given in rising order. Counts like (3×) give the number of equal values in this list. Where survival is the endpoint, the PubChem record calls one and a half times the control and up active, and a quarter to a half above the control has no call in these data; cut-offs in other NCI protocols can differ. Some T/C values carry the count of animals alive at the toxicity check (mostly the fifth day); without a count, all were alive then. Some schedules carry Z or #; the key to these is not given.
Tested on: P388 leukemia ip, CD2F1 mice, survival T/C
Experiment: NCI In Vivo Anticancer Drug Screen. Data for tumor model P388 Leukemia (intraperitoneal) in CD2F1 (CDF1) mice
Settings: T/C endpoint: median survival time, higher T/C = longer survival

COc1cccc2c1C(=O)c1c(O)c3c(c(O)c1C2=O)C[C@@](O)(C(=O)CO)C[C@@H]3OC1CC(N)C(O)C(C)O1 (stereo partly specified)
T/C (dose: 4.0 mg/kg/injection, schedule: Q04DX003 (ip), vehicle: saline, evaluated on day 5): 177, 184, 194, 243, 264 % of control
T/C (dose: 4.0 mg/kg/injection, schedule: Q04DX003 (ip), vehicle: saline, evaluated on day 8): 148 % of control
T/C (dose: 4.0 mg/kg/injection, schedule: Q04DX003 (ip), vehicle: saline, evaluated on day 9): 163 % of control
T/C (dose: 4.0 mg/kg/injection, schedule: Q04DX003 (ip), vehicle: saline, evaluated on day 10): 116 % of control
T/C (dose: 4.0 mg/kg/injection, schedule: Q04DX003 (ip), vehicle: saline, evaluated on day 30): 108, 114 (2×), 120, 125 (2×), 133, 135, 137 (3×), 138, 140 (2×), 149, 153, 156, 162, 173, 196 % of control
T/C (dose: 4.0 mg/kg/injection, schedule: Q04DX003 (ip), vehicle: saline, evaluated on day 45): 193, 206, 225 % of control (2×)
T/C (dose: 4.0 mg/kg/injection, schedule: Q04DX003 (ip), vehicle: saline, evaluated on day 60): 209, 220, 245, 280 % of control
T/C (dose: 4.0 mg/kg/injection, schedule: Q04DX003 (ip), vehicle: water, evaluated on day 30, list 1 of 2): 116, 118, 124, 125 (2×), 126, 128, 129, 130, 132 (2×), 133, 134, 136, 138 (2×), 139, 141, 142, 144, 145 (2×), 146 (2×), 148, 150, 153, 155, 157, 162, 163, 166, 169, 180, 203 % of control
T/C (dose: 4.0 mg/kg/injection, schedule: Q04DX003 (ip), vehicle: water, evaluated on day 30, list 2 of 2): 114, 116, 120, 124, 125, 126, 127, 129, 130, 131, 132, 133, 134, 135, 137, 138, 139, 141 (2×), 143, 145 (3×), 146, 148, 149, 152, 155, 156, 160, 163, 165, 166, 169, 183, 228 % of control
T/C (dose: 4.0 mg/kg/injection, schedule: Q04DX003 (ip), vehicle: water, evaluated on day 35): 124, 126 (2×), 134, 138 (2×), 141, 143, 145, 148, 153, 156, 157, 161 % of control
T/C (dose: 4.0 mg/kg/injection, schedule: Q04DX003 (ip), vehicle: water, evaluated on day 40): 129, 145, 147, 151, 163 % of control
T/C (dose: 4.0 mg/kg/injection, schedule: Q04DX003 (ip), vehicle: water, evaluated on day 45): 108, 117, 122, 123 (2×), 125, 126 (3×), 129 (2×), 129 [2 of 3 alive], 130, 131 (2×), 132 (2×), 133 [2 of 3 alive], 134, 135 (2×), 136 (3×), 137, 138 (3×), 140, 141 (2×), 144 (2×), 145 (2×), 145 [5 of 6 alive], 146, 149, 155, 160, 162 (3×), 163, 166, 171, 172, 175 (2×), 185, 188, 189, 208, 221, 264 % of control
T/C (dose: 4.0 mg/kg/injection, schedule: Q04DX003 (ip), vehicle: water, evaluated on day 50): 118, 128, 135, 145, 155 % of control
T/C (dose: 4.0 mg/kg/injection, schedule: Q04DX003 (ip), vehicle: water, evaluated on day 60): 117 and 146 % of control
T/C (dose: 4.0 mg/kg/injection, schedule: Q04DX003 (iv), vehicle: saline): 138 % of control
T/C (dose: 4.0 mg/kg/injection, schedule: Q## X001 (ip), vehicle: saline): 94, 98, 104, 113, 126, 131, 144 % of control
T/C (dose: 4.4 mg/kg/injection, schedule: Q01DX001 (ip), vehicle: saline, evaluated on day 5): 106 [2 of 4 alive], 133, 161 % of control
T/C (dose: 4.4 mg/kg/injection, schedule: Q01DX001 (ip), vehicle: saline, evaluated on day 9): 151 % of control
T/C (dose: 4.4 mg/kg/injection, schedule: Q01DX001 (ip), vehicle: saline, evaluated on day 30): 157, 176, 230 % of control
T/C (dose: 4.4 mg/kg/injection, schedule: Q01DX001 (ip), vehicle: saline, evaluated on day 47): 172 % of control
T/C (dose: 4.5 mg/kg/injection, schedule: Q01DX001 (ip), vehicle: saline, evaluated on day 20): 185 % of control
T/C (dose: 4.5 mg/kg/injection, schedule: Q01DX001 (ip), vehicle: saline, evaluated on day 23): 152 % of control
T/C (dose: 4.5 mg/kg/injection, schedule: Q01DX001 (ip), vehicle: saline, evaluated on day 30): 92, 125, 135, 137, 157, 160 (2×), 161 (2×), 162 (2×), 163 (2×), 166, 168 (4×), 173, 175, 176, 178 (3×), 179, 180 (2×), 181 (3×), 183, 184, 185, 186, 188 (2×), 190 (2×), 191 (2×), 193, 194 (2×), 197, 200, 204 (2×), 207, 213, 218, 220 (2×), 225, 252 % of control
T/C (dose: 4.5 mg/kg/injection, schedule: Q01DX001 (ip), vehicle: saline, evaluated on day 45): 145, 176, 179 % of control
T/C (dose: 4.5 mg/kg/injection, schedule: Q01DX001 (ip), vehicle: saline, evaluated on day 46): 185 % of control
T/C (dose: 4.5 mg/kg/injection, schedule: Q01DX001 (ip), vehicle: saline, evaluated on day 56): 172 % of control
T/C (dose: 4.5 mg/kg/injection, schedule: Q01DX001 (ip), vehicle: saline, evaluated on day 60): 212 % of control
survivor count (dose: 4.5 mg/kg/injection, schedule: Q01DX001 (ip), vehicle: saline): 2 of 6
T/C (dose: 4.5 mg/kg/injection, schedule: Q04DX003 (ip), vehicle: saline, evaluated on day 45): 136, 170, 192, 211, 212, 245, 252, 256, 279 (2×), 283 % of control
T/C (dose: 4.5 mg/kg/injection, schedule: Q04DX003 (ip), vehicle: saline, evaluated on day 60): 205 % of control
T/C (dose: 4.75 mg/kg/injection, schedule: Q01DX001 (iv), vehicle: saline): 127 % of control
T/C (dose: 5.0 mg/kg/injection, schedule: Q01DX001 (ip), vehicle: water, evaluated on day 5): 116 % of control
T/C (dose: 5.0 mg/kg/injection, schedule: Q01DX001 (ip), vehicle: water, evaluated on day 30): 166 and 223 % of control [5 of 6 alive]
T/C (dose: 5.0 mg/kg/injection, schedule: Q01DX001 (ip), vehicle: water, evaluated on day 45): 178, 179, 189, 190, 192 (2×), 199, 213 % of control
T/C (dose: 5.0 mg/kg/injection, schedule: Q04DX003 (ip), vehicle: saline, evaluated on day 8): 166 % of control
T/C (dose: 5.0 mg/kg/injection, schedule: Q04DX003 (ip), vehicle: saline, evaluated on day 10): 128 % of control
T/C (dose: 5.0 mg/kg/injection, schedule: Q04DX003 (ip), vehicle: saline, evaluated on day 45): 238 % of control
T/C (dose: 5.0 mg/kg/injection, schedule: Q04DX003 (ip), vehicle: saline, evaluated on day 60): 218 % of control
T/C (dose: 5.0 mg/kg/injection, schedule: Q04DX003 (ip), vehicle: water): 129 % of control
T/C (dose: 6.0 mg/kg/injection, schedule: Q04DX003 (ip), vehicle: saline, evaluated on day 5): 158 % of control
T/C (dose: 6.0 mg/kg/injection, schedule: Q04DX003 (ip), vehicle: saline, evaluated on day 9): 165 % of control
T/C (dose: 6.0 mg/kg/injection, schedule: Q04DX003 (ip), vehicle: saline, evaluated on day 30): 110, 115, 166 [survivors not given], 174 % of control [survivors not given]
T/C (dose: 6.0 mg/kg/injection, schedule: Q04DX003 (ip), vehicle: saline, evaluated on day 45): 120, 248, 284 % of control
T/C (dose: 6.0 mg/kg/injection, schedule: Q04DX003 (ip), vehicle: saline, evaluated on day 60): 238, 264, 466 % of control
survivor count (dose: 6.0 mg/kg/injection, schedule: Q04DX003 (ip), vehicle: saline): 10 of 10
T/C (dose: 6.0 mg/kg/injection, schedule: Q04DX003 (ip), vehicle: water): 145 % of control
survivor count (dose: 6.25 mg/kg/injection, schedule: Q01DX009 (ip), vehicle: water): 5 of 6 (2×) and 6 of 6 (2×)
T/C (dose: 6.7 mg/kg/injection, schedule: Q01DX001 (ip), vehicle: saline, evaluated on day 5): 115 [8 of 9 alive], 152, 186 % of control
T/C (dose: 6.7 mg/kg/injection, schedule: Q01DX001 (ip), vehicle: saline, evaluated on day 9): 147 % of control
T/C (dose: 6.7 mg/kg/injection, schedule: Q01DX001 (ip), vehicle: saline, evaluated on day 11): 120 % of control [8 of 9 alive]
T/C (dose: 6.7 mg/kg/injection, schedule: Q01DX001 (ip), vehicle: saline, evaluated on day 20): 189 % of control

— PubChem BioAssay AID330 (DTP/NCI, 2004)
